PubChem BioAssay AID1159578 | Peter MacCallum Cancer Centre | 2015
Purpose: 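Genome-wide hunt for genes controlling movement of lymphatic endothelial cells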 (primary screen). Cell system: human lymphatic endothelial cells. Knock-down reagent: siRNA pool against human genes, 40 nM. Duration: 48 h after transfection. Detection: 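Cells stained with dye and imaged after a scratch; covered wound area and nuclei counted, duplicates averaged, migration set against mock wells and turned into a robust z-score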. Scale: migration robust z-score: higher = faster migration into the scratch; nuclei per well: higher = more cells in the well. Rule for the call: 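Pools averaging fewer than 3300 nuclei are never called; remaining pools count as changed when migration robust z lies outside -2 to 2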. Meaning of the calls: active = migration changed; inactive = no migration change, or too few cells.
This is one part, drawn at random, of about 18,000 reagents tested. About 1,030 of all reagents (5.7%) count as active. 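Inactive calls also include pools with fewer than 3300 nuclei, whose migration was not assessed.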 Raw values vary from plate to plate and are shown uncorrected. Not all columns of the deposit are shown.

After knock-down of FOXR2, the screen gave migration robust z-score 0.44; nuclei per well, duplicate mean 5526; inactive.
MRPS28 showed migration robust z-score 0.84; nuclei per well, duplicate mean 5734; inactive.
With knock-down of EMC2, the screen gave migration robust z-score -0.9; nuclei per well, duplicate mean 6379; inactive.
Knock-down of LBR gave: migration robust z-score 1.92; nuclei per well, duplicate mean 6168; inactive.
ELOVL7 showed migration robust z-score -0.08; nuclei per well, duplicate mean 5764; inactive.
Depletion of NFIA gave: migration robust z-score 0.94; nuclei per well, duplicate mean 6188; inactive.
For OR5H1 the deposit lists migration robust z-score -0.59; nuclei per well, duplicate mean 5492; inactive.
Against TMEM88, the entry reads migration robust z-score -0.66; nuclei per well, duplicate mean 6481; inactive.
Knock-down of PDAP1 resulted in: migration robust z-score 0.54; nuclei per well, duplicate mean 5630; inactive.
Knock-down of STAT3 came out at: migration robust z-score 1.01; nuclei per well, duplicate mean 6512; inactive.
With knock-down of SUCNR1, the screen gave migration robust z-score -0.78; nuclei per well, duplicate mean 6701; inactive.
With knock-down of CTLA4, the record shows migration robust z-score 1.69; nuclei per well, duplicate mean 6037; inactive.
Depletion of MRTO4 came out at: migration robust z-score 1.11; nuclei per well, duplicate mean 6555; inactive.
After knock-down of METTL5, the screen gave migration robust z-score 0.24; nuclei per well, duplicate mean 5890; inactive.
ELAC2 showed migration robust z-score -0.39; nuclei per well, duplicate mean 5351; inactive.
Knock-down of SCGB1D2 resulted in: migration robust z-score 0.82; nuclei per well, duplicate mean 5736; inactive.
SSR2 showed migration robust z-score 0.28; nuclei per well, duplicate mean 4506; inactive.

Single entries from the list.
For “Call”, FOXR2 is entered as inactive
SCGB1D2, migration robust z-score: 0.82

Further entries follow.
After knock-down of PRDM5, the screen gave migration robust z-score 1.33; nuclei per well, duplicate mean 6532; inactive.
Against IGF1, the values are migration robust z-score 0.2; nuclei per well, duplicate mean 5134; inactive.
Against CD9 the deposit lists migration robust z-score 0.15; nuclei per well, duplicate mean 5677; inactive.
CTNS gave migration robust z-score 0.64; nuclei per well, duplicate mean 7440; inactive.
Against NDUFA9, the values are migration robust z-score 0.68; nuclei per well, duplicate mean 6860; inactive.
Depletion of GPR160 resulted in: migration robust z-score -0.52; nuclei per well, duplicate mean 5958; inactive.
Silencing of ZNF598 gave: migration robust z-score 1.91; nuclei per well, duplicate mean 6980; inactive.
With knock-down of SERPINF2 the results were migration robust z-score 0.48; nuclei per well, duplicate mean 6648; inactive.
Knock-down of UBE4B gave: migration robust z-score 1.3; nuclei per well, duplicate mean 5735; inactive.
After knock-down of ZNF85, the screen gave migration robust z-score -1.66; nuclei per well, duplicate mean 5332; inactive.
